Results on 2 sequences are retold here after publication PMC4770209.

Chains of the proteins cited; added tags and fusions are not shown. Lines headed by an entry give the natural chain unless they say otherwise; changes in a name come on top. Residues count along the entry.
UniProt Q01167, 1-430: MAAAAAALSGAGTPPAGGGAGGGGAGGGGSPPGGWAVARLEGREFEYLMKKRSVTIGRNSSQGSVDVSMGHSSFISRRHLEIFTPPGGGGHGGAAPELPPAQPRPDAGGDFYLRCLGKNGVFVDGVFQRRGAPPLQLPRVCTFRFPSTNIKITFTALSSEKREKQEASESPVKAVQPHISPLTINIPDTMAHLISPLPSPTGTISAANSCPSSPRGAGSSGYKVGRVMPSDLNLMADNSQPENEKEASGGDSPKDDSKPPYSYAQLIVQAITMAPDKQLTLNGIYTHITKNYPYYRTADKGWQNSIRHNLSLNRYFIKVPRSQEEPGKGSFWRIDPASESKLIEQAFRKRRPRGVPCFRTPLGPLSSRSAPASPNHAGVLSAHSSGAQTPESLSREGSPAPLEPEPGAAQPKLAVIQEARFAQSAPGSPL
UniProt Q01167, 228-382: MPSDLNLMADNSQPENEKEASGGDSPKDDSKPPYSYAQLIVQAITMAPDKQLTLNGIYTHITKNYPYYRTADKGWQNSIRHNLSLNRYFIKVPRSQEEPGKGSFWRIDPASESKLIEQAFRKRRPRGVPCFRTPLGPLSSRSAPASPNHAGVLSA

Series [1] deals with FOXK2(1-430)-Sso7d fusion (UniProt Q01167). Kind of series: pull-down. The settings on record: streptavidin beads; protein translated in vitro; residues 1-430; label: 5'-biotin on strand 1.
In series [2] the target is FOXK2(1-430)-Sso7d, Sso7d mutant (UniProt Q01167). Nature of the series: pull-down. The settings on record: streptavidin beads; protein translated in vitro; residues 1-430; label: 5'-biotin on strand 1.
The target in series [3] is FOXK2(1-430)-Sso7d, forkhead domain mutant (UniProt Q01167). Kind of series: pull-down. To be noted: streptavidin beads; protein translated in vitro; residues 1-430; label: 5'-biotin on strand 1.
A further series addresses FOXK2(228-382) (UniProt Q01167). Nature of the series: competition with a labelled probe. The settings on record: unlabelled competitor 25-200x vs labelled WT; EMSA: 75 mM KCl, room temperature 30 min, 5% PAGE in 0.25x TBE at 4 C; recombinant protein; residues 228-382; protein details: 6xHis. In general terms: A gel shift assay detects complexes by their altered migration in electrophoresis.

For some of these results: A weaker result is weaker than the reference pair of the same experiment. For some of these results: The exact form of at least one protein or probe is not confirmed. For some of these results: At least one verdict rests on a figure or table, not on a statement of the authors.

For “CTATTCCCTGGGTAAACAGCCTGAGGGGAAG (double strand) [ANKRD1 WT probe (ADS4757/ADS4758)]”, the binding result in series [1] is “binds”; in series [2] it was “binds more weakly”; in series [3], “binds more weakly”.

Turning to “CTAGAACATGTTAGGGTAAACAAGGAAGCCTG / CTAGCAGGCTTCCTTGTTTACCCTAACATGTT [CYP27C1mut1 (ADS3737/ADS3738)]”, in the series with FOXK2(228-382), the binding result is “binds more weakly”.
